Results reported in patent US20240325402A1, “MOMELOTINIB COMBINATION THERAPY” (GlaxoSmithKline LLC, priority 2021, published 2024).
At least one compound was matched to its structure with a doubt left.

Test system: NF-kB reporter activity
Test: NF-kB luciferase reporter assay (TNFa-stimulated NF-kB Reporter-HEK293 cells)
Type: cell-based, human
Conditions: cellular data, compounds ran in parallel
Experimental: NF-kB Reporter-HEK293 cell line (BPS Bioscience #60650); MEM medium (Hyclone #SH30024.01); Fetal bovine serum (Life Technologies #10082147); Non-essential amino acid (Corning 25-025-C1); Na-pyruvate (Hyclone #SH30239.01); Pen-strep (Hyclone #SV30010); Hygromycin B (Invitrogen/Thermo-Fisher #10687010); IKK-16 dihydrochloride—NF-kB inhibitor (Sigma SML1138); TNFa (R&D Systems 210-TA); ONE-Step luciferase assay system (BPS Bioscience #60690).
Cell culture. Cells were cultured in MEM medium with 10% FBS, 1% non-essential amino acid, 1 mM Na-pyruvate, 1% Pen-strep, and 50 μg/mL Hygromycin B.
To perform the NF-kB luciferase reporter assay, NF-kB Reporter—HEK293 cells were seeded at 30,000 cells per well into white clear-bottom 96-well microplate in 60 μL of assay medium (growth medium without Hygromycin B). Cells were incubated at 37° C. and 5% CO2 for 5 hours to allow them attach. A serial dilution of compounds was prepared in assay medium without Hygromycin B. Thirty μL of diluted compounds was added to the treatment wells at the end of the day. […] One hundred μL of assay medium with DMSO was added to cell-free control wells for determining background luminescence. […]
The next day ten μL of diluted human TNFa in assay medium was added to wells (final [TNFa]=10 ng/mL). […] Luminescence was measured using a luminometer (BioTek Synergy™ 2 microplate reader).

In the case of `N#CC[C@H](C1CCCC1)n1cc(-c2ncnc3[nH]ccc23)cn1` [Ruxolitinib (INCB018424)], the “downregulation of NF-κB signaling in a luciferase assay” value is reported as “did not”.
